Experimental data: PubChem BioAssay AID1159584 (Peter MacCallum Cancer Centre, 2016)
Test: 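Knock-downs that harm CDH1-null cells more than parental MCF10A cells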 (primary screen). System: human MCF10A breast epithelial cells, parental and CDH1-null. Reagents: siRNA against human genes. Measurement: 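Cell viability by CellTiter-Glo ATP luminescence, each line scaled to the mean of mock wells across plates, then CDH1-null over parental ratio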. Reading the numbers: CDH1-null / parental viability ratio: higher = CDH1-null cells survive relatively better than parental; CDH1-null viability vs mock: higher = more viable CDH1-null cells; parental viability vs mock: higher = more viable parental cells.
Shown is an unselected part of about 18,000 deposited reagents. Reagent sequences are not shown. The record does not give: the amount of reagent, the time to read-out.

| Target gene | CDH1-null / parental viability ratio | CDH1-null viability vs mock (fraction of mock) | parental viability vs mock (fraction of mock) |
| --- | --- | --- | --- |
| PGA3 | 1.43 | 0.99 | 0.69 |
| TRIM24 | 1.03 | 0.66 | 0.64 |
| CNTNAP1 | 1.03 | 1 | 0.97 |
| KBTBD8 | 1.09 | 0.7 | 0.64 |
| LSM1 | 0.97 | 0.76 | 0.78 |
| OR5D18 | 0.97 | 0.94 | 0.97 |
| TRIM49C | 0.98 | 0.96 | 0.98 |
| PAPOLA | 0.83 | 0.6 | 0.72 |
| SLAMF8 | 1.04 | 0.74 | 0.71 |
| ENHO | 1.09 | 0.87 | 0.8 |
| ST8SIA6 | 1.03 | 0.74 | 0.72 |
| RABL2B | 0.97 | 0.57 | 0.59 |
| PGBD4 | 1 | 1.08 | 1.08 |
| ADGRG3 | 0.93 | 0.7 | 0.75 |
| STRN3 | 0.91 | 0.64 | 0.7 |
| GLUD1 | 0.91 | 1.02 | 1.12 |
| ZNF536 | 0.86 | 0.76 | 0.88 |
| ADRA1B | 1.95 | 0.82 | 0.42 |
| IGF2BP1 | 0.82 | 0.77 | 0.94 |
| RHOBTB3 | 0.9 | 0.74 | 0.82 |
| PABIR2 | 0.89 | 0.76 | 0.85 |
| TAS2R20 | 0.9 | 0.74 | 0.82 |
| SRY | 1.04 | 1.14 | 1.1 |
| OR1N2 | 1.06 | 0.72 | 0.68 |
| TAF2 | 0.96 | 0.77 | 0.8 |
| NPAT | 1.08 | 0.71 | 0.66 |
| ERP44 | 1.01 | 0.79 | 0.78 |
| RNF170 | 0.93 | 0.86 | 0.92 |

Look-ups from the entries so far:
Value of PGA3 under “CDH1-null viability vs mock (fraction of mock)”: 0.99
SRY, parental viability vs mock (fraction of mock) = 1.1
For “CDH1-null viability vs mock (fraction of mock)”, TRIM49C shows 0.96
Result for CNTNAP1 under “CDH1-null / parental viability ratio”: 1.03
